Results from paper PMC6511868.
Results are given in words; binding and its absence hold for the method and conditions named. Binding seen in cells or lysates may run through a third protein. For some of these results: Binding can be weak; no strength is given. For some of these results: Tags and fused reporters may be left off the sequences shown.

The chains behind the UniProt entries cited, without tags or fusion partners. Where a name states a change or a piece, a line headed by the entry shows the natural chain unless it says otherwise.
UniProt P04456: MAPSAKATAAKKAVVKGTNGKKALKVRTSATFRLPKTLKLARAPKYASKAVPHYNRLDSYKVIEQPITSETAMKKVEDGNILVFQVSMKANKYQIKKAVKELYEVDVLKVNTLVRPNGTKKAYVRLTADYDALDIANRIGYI
UniProt P05453: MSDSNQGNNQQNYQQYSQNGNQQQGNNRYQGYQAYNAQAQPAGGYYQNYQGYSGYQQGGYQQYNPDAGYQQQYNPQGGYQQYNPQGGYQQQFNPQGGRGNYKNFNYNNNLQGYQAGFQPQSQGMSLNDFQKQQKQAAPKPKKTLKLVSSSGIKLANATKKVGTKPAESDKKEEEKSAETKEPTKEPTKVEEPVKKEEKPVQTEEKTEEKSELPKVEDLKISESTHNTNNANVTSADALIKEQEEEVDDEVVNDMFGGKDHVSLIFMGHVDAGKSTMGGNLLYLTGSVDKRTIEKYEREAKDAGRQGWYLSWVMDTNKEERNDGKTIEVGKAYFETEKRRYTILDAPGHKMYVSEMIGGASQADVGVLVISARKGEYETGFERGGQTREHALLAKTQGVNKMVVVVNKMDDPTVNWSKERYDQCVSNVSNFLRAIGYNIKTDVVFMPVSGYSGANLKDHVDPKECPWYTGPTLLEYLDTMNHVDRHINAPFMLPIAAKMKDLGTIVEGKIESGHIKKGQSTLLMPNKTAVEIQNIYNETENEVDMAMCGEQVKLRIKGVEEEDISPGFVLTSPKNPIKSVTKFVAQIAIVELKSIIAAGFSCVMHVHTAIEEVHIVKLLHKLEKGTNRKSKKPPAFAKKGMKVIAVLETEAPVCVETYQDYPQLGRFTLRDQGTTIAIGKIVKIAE
UniProt P06103: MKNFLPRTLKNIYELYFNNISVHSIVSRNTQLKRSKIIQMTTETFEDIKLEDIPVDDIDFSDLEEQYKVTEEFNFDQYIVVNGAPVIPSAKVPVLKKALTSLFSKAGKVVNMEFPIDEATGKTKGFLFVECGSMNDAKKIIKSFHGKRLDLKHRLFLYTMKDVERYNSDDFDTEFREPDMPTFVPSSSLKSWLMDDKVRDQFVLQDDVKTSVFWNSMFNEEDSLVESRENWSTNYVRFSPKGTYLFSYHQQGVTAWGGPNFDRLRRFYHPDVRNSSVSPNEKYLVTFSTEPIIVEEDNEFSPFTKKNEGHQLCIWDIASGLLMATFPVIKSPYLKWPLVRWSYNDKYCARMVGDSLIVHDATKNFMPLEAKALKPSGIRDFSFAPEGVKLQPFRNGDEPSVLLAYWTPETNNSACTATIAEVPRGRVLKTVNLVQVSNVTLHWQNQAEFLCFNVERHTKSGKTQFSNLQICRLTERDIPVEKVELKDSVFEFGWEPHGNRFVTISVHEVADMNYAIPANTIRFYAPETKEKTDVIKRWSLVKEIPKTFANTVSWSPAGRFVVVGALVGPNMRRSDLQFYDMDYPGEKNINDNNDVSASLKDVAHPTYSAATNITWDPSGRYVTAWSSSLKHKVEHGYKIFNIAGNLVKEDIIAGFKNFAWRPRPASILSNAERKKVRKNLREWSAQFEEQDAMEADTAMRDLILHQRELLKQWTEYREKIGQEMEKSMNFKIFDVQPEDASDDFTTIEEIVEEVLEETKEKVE
UniProt P12385: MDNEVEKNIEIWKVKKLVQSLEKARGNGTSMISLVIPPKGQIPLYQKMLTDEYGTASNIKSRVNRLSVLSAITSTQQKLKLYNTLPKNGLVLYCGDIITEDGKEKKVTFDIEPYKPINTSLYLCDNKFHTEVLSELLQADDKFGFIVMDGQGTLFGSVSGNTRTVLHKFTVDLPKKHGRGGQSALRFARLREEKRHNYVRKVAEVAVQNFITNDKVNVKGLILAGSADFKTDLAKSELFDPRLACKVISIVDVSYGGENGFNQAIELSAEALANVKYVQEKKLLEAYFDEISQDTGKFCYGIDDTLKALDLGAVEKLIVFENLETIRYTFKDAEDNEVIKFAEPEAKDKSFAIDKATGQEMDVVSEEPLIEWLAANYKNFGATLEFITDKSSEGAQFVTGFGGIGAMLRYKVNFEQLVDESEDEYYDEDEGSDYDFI

Assays:
[1] = biological target: uL23 as bait of the co-IP of Figure 1C (tag not told) (S. cerevisiae) (UniProt P04456); experiment: co-IP; yeast lysates; GFP-Trap_A beads (GFP-tagged baits) or IgG-Sepharose (TAP-tagged baits), 3 h at 4°C, western blot; wild type and the strains sup45-2, rat8-2, rat7ΔN shifted to 37°C for 1 h; also 0.5 mg/ml cycloheximide for 30 min; also high copy RLI1
[2] = biological target: eRF3 as used in the eRF3/eRF1 co-IPs of Figures 3B and 3D (tag not told) (S. cerevisiae) (UniProt P05453); experiment: as above
[3] = biological target: T1, Dbp5 as precipitated in the Dbp5 IPs (tag not told) (S. cerevisiae) (UniProt P20449); experiment: as above
T1 sequence: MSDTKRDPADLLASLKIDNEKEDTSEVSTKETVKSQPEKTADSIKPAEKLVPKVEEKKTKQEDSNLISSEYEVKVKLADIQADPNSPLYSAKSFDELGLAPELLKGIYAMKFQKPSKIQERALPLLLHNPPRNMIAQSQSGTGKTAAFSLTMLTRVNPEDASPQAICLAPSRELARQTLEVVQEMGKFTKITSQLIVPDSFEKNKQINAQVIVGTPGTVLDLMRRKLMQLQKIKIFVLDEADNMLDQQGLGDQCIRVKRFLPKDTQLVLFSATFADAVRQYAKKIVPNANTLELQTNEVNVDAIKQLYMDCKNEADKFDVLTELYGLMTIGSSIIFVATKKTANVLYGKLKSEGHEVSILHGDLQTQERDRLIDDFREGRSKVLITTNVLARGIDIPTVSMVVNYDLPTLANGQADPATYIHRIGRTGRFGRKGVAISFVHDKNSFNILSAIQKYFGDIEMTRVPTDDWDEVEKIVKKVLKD

Prt1-GFP (S. cerevisiae) = Prt1-GFP (S. cerevisiae) (UniProt P06103); experiment: co-IP; yeast lysate of sup45-2 cells; Prt1-GFP precipitated, western blot

binding [1]: binds
binding [2]: binds
binding [3]: binds
binding (Prt1-GFP (S. cerevisiae)): no binding
Substance: mutated eRF1 protein sup45-2 (from UniProt P12385)
